Test results as given in patent CN114181313A.
These are yes or no findings as the source states them, for the method shown. Some results given as binding are weak or reduced against the parent protein; the word gives no strength.

Protein sequences, listed by entry. Tags and fused reporters are not part of them. Lines headed by an entry give the natural chain unless they say otherwise; changes in a name come on top.
UniProt P06732: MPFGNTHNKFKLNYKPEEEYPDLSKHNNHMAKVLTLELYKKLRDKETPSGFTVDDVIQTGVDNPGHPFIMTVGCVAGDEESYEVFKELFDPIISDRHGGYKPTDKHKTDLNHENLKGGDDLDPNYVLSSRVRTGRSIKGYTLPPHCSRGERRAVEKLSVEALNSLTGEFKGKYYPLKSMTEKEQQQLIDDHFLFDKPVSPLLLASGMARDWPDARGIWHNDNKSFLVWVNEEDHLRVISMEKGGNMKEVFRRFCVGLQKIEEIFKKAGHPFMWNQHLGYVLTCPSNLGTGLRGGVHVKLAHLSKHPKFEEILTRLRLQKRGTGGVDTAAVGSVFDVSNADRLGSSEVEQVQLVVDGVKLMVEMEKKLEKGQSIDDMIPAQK
UniProt P12277: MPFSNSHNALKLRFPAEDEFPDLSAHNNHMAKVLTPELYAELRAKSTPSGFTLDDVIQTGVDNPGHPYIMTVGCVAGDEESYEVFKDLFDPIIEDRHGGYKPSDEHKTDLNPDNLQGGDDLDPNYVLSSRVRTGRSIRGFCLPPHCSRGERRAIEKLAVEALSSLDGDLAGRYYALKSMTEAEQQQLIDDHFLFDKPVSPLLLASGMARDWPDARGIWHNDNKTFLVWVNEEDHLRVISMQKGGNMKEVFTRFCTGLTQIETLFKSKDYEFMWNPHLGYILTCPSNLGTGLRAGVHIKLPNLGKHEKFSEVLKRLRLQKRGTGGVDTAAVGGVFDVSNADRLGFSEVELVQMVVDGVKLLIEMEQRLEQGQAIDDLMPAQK

B1: 抗体A (antibody, IgG2, V domains shown)
VH: DVQLQESGPGLVKPSQTVSLTCTVTGISITTGSDRWSWIRQFPGNKLEWIGYIYYSGTITYNPSLTSRTTITRDTSKNQFFLEMNSLTAEDTATYYCARERTYYGYGYFDVWGTGTTVTVSS
VL: DIQMTQSPSSLSASLGDKVTITCHASQNINVWLSWYQQKPGKAPKLLIYKASDLHTGVSSRFSGSGSGTAFTLTISSLQPEDIATYYCQQGQSYPWTFGGGTKLEIK
B2: 抗体B (antibody, IgG2, V domains shown)
VH: QVQLQQSGAELVKPGASVKISCKASGYAFSDYWMNWVKQRPGQGLEWIGQIYPGDGDTNYNGKFKGKATLAADKSSSTVYMQLSSLTSEDSAVYFCARVYPYFTYWGQGTLVTVSA
VL: DIVMTQSHKFMSTSVGDRVSITCKASQDVSTAVAWYQQKPGQSPKLLIYSASYRYTGVPDRFTGSGSGTDFTFTISSVQAEDLAVYYCQQHYSSPVTFGAGTKLELK

Key:
重组蛋白人CK-MB (human) [1] = biological target: T1, 重组蛋白人CK-MB (human) (UniProt P06732+P12277); test: ELISA specificity screen of hybridoma clones; antigens at 1 ug/mL
重组蛋白人CK-MB (human) [2] = biological target: T1, 重组蛋白人CK-MB (human); test: lateral-flow sandwich kit made of antibodies B and C, run on clinical samples (native CK-MB)

Binder	binding (重组蛋白人CK-MB (human) [1])	binding (重组蛋白人CK-MB (human) [2])
B1	binds	
B2	binds	binds
